The source of these data is patent publication US6706766.

For one test, the target named is T1, CIDE-N domain of DFF40 (UniProt O76075).
T1 sequence (looked up): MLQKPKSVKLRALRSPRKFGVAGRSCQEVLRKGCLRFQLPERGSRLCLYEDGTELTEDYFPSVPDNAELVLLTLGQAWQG
Briefly: NMR spectroscopy.

Another test deals with T2, CIDE-N domain of DFF45 (UniProt O00273).
T2 sequence (looked up): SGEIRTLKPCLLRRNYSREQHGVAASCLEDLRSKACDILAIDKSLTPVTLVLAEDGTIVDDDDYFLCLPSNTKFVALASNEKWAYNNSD
The experiment in a line: NMR spectroscopy.

These are yes or no findings as the source states them, for the method shown. Some entries that bind do so weakly or less than the wild type.

B1: CIDE-N domain of CIDE-B (protein, UniProt Q9UHD4 1-116, looked up)
chain: MEYLSALNPSDLLRSVSNISSEFGRRVWTSAPPPQRPFRVCDHKRTIRKGLTAATRQELLAKALETLLLNGVLTLVLEEDGTAVDSEDFFQLLEDDTCLMVLQSGQSWSPTRSGVL
On to B1, for which the binding entry with CIDE-N domain of DFF40 and with CIDE-N domain of DFF45 was “binds” throughout.
